Experimental data taken from patent US6365364.
These are yes or no findings as the source states them, for the method shown.

Protein sequences, listed by entry. Tags and fused reporters are not part of them. Lines headed by an entry give the natural chain unless they say otherwise; changes in a name come on top.
UniProt P00747: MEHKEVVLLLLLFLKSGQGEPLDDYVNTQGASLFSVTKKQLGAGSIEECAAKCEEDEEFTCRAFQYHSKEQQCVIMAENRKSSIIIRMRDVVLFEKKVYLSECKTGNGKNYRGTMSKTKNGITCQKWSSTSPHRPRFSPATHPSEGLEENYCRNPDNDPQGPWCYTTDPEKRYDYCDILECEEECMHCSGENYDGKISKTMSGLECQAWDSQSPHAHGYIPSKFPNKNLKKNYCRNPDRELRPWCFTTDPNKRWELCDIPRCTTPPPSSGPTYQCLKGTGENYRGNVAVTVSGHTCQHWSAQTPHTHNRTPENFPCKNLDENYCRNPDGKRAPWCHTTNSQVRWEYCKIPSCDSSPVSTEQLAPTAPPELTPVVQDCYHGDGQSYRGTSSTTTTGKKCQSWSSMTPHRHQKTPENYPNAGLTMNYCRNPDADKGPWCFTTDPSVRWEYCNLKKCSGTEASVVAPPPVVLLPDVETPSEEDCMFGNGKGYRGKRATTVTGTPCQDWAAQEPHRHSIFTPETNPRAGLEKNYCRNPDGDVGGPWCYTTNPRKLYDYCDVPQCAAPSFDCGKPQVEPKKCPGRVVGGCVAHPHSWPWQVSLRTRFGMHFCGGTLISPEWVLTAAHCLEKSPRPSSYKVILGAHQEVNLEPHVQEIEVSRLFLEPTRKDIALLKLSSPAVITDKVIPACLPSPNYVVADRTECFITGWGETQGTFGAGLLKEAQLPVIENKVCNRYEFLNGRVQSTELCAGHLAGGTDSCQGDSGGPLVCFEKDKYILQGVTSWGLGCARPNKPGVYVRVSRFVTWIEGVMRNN

Target: T1, bovine bone osteonectin (bovine) (UniProt P13213)
T1 sequence (looked up): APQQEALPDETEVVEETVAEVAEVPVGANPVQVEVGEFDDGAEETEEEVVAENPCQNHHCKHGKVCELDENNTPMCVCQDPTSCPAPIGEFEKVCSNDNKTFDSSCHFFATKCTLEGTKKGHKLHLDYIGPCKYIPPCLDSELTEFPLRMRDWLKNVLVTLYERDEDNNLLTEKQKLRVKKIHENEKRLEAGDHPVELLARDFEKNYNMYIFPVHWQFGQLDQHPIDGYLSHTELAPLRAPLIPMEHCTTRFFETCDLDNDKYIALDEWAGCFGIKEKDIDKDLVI
Assay: condition: 100 nM plasminogen (S741C), 2 µM bone osteonectin; TIRFS, osteonectin on a well coated with collagen type V

binding: no binding
Substance: recombinant plasminogen (S741C), fluorescein labeled (from UniProt P00747)
